Results: US10653680B2, “Treatment of impulsivity-related disorders” (OXFORD UNIVERSITY INNOVATION LIMITED, priority 2016, dated 2020)
For at least one compound, name, drawing or mass did not settle the structure.

Test system: rats
Test: 5-CSRTT, stimulant (cocaine)-induced responding
Format: in vivo, rats (males; Long Evans)
Experimental: Testing was carried out in Vancouver (Canada) using rats (males; Long Evans from Charles River) which were given at least two weeks to acclimatise to the animal facility. They were housed in pairs on a 12 hour reverse light-dark cycle (lights off at 7 am). In the second week of acclimatisation, rats were handled briefly each day. […] For each task, there was then a habituation session to the operant boxes before training began.
Ebselen, cocaine and 2,5-dimethoxy-4-iodoamphetamine (DOI) were obtained from Sigma Aldrich, and MDL 100,907 was obtained from Tocris. Ebselen was dissolved in 0.5M DMSO and made up to injection volume (8 ml/kg) using 4% cyclodextrin. Cocaine and DOI were dissolved in 0.9% saline. MDL 100,907 was dissolved in 0.9% saline and the pH was adjusted to 6.25 using 1M NaOH and 0.1M HCl.
All data for the cognitive tasks are presented as mean+SEM change from baseline: • performance on drug day−performance on the previous day
In experiments investigating the effect of ebselen on cocaine and DOI, data were analysed with a two-way ANOVA with ebselen and cocaine/DOI as between-subject factors. If an interaction was detected, this was further investigated using simple main effects analysis. All analyses were conducted using SPSS 22 with p<0.05 considered significant.
To assess the effect of ebselen on stimulant-induced responding, ebselen (10 mg/kg) or vehicle was administered 1 hour prior to cocaine (15 mg/kg i.p.), which in turn was administered 10 minutes prior to testing. Treatments were administered using according to a Latin square design. The inter-trial interval for these sessions was 5 seconds. Two rats were excluded from the data due to increasing levels of omissions across all days of this portion of the study. The experiment was repeated using 0.03 mg/kg MDL 100,907 instead of ebselen.

**Q.** With `COC(=O)[C@H]1[C@@H](OC(=O)c2ccccc2)C[C@@H]2CC[C@H]1N2C` [cocaine] as the compound, how does the “increase in premature responses following cocaine when rats did not receive ebselen” value (cocaine 15 mg/kg i.p. 10 minutes prior to testing, p=0.062) read?
**A.** only a trend

**Q.** What about the premature responding (cocaine 15 mg/kg i.p., MDL 100,907 experiment, p=0.008) of the same compound?
**A.** increased premature responding

**Q.** And the correct response latency (cocaine 15 mg/kg i.p., MDL 100,907 experiment, p=0.019)?
**A.** decreased

**Q.** What about the “omissions (increase)” value (cocaine 15 mg/kg i.p., MDL 100,907 experiment, p=0.063) of the same compound?
**A.** trend

**Q.** And the “overall effect of cocaine on premature response (ANOVA)” value (cocaine 15 mg/kg i.p., ebselen experiment, p=0.227)?
**A.** No overall effect

**Q.** And the accuracy (cocaine alone 15 mg/kg i.p., p=0.002)?
**A.** significant effects

**Q.** What about the omission rates (cocaine alone 15 mg/kg i.p., p=0.025) of the same compound?
**A.** significant effects
